Reference: PubChem BioAssay AID504847 (National Center for Advancing Translational Sciences (NCATS), 2011)
Out of some 400,000 compounds screened, about 3,700 (0.93%) were called active. Inconclusive means that the source gave no clear call. Such entries were picked first, then a sample of the others. Calls come from the whole dose curve; as a rule, active = well fitted inhibition curve with a large enough effect; inconclusive = small, poorly fitted or top-dose-only effect, or another doubt; inactive = no such curve, though single readings can be large or run the other way. Where the call is inconclusive, the potency comes from a doubtful curve fit.

Protein sequences, listed by entry. Tags and fused reporters are not part of them. Lines headed by an entry give the natural chain unless they say otherwise; changes in a name come on top.
UniProt P11473: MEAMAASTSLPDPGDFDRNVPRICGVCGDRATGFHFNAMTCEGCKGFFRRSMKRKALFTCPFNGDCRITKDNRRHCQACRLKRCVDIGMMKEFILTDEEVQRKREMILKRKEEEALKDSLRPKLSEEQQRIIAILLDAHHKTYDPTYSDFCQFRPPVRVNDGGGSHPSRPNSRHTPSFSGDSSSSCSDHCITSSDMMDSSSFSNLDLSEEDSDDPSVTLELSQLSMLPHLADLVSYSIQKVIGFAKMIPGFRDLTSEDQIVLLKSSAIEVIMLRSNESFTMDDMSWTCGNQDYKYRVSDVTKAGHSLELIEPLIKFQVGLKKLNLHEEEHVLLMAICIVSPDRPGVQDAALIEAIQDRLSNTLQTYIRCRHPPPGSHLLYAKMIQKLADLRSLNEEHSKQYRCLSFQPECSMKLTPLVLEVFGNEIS

What follows are compounds tested against Vitamin D3 receptor (Homo sapiens) (UniProt P11473) (assay: Inhibitors of the vitamin D receptor (VDR): qHTS). Settings: VDR-SRC2-3 peptide fluorescence polarization, 2 h; max response, negative = inhibition: active compounds read low.
Procedure, shortened: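 Fluorescence polarization assay of small-molecule disruption of VDR binding to coregulator peptide SRC2-3. Compounds and controls pin-transferred, then read after 2 h incubation at ambient room temperature.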
% is set by controls: 0 for no effect and ±100 for the full control effect; potency is the fitted concentration of half-maximal effect.

Max response, negative = inhibition, inactive:
O=C(NN=C1CCCC1)c1ccccc1OCc1ccc(Cl)cc1 -1.03%
Cc1ccc(C)c(N2CCN(C(c3ccc(N(C)C)cc3)c3nnnn3C(C)(C)C)CC2)c1 (configuration not stated) 2.31%
COc1cc2c(cc1OC)C1C(=O)c3ccc4c(c3OC1CO2)C=CC(C)(C)O4 (configuration not stated) -11.2%
O=C1c2ccccc2C(=O)c2c(NCCc3ccc(O)cc3)ccc(NCCc3ccc(O)cc3)c21 0.521%
Cn1ccnc1SCC(=O)NC1CCCCC1 19%
Cc1cccc(NC(=S)NC2CC3CCCC(C2)N3Cc2ccccc2)c1C (configuration not stated) -1.66%
Cc1ccc(NC(=O)COc2coc(CN3CCc4ccccc43)cc2=O)c(C)c1 0.555%
Cc1cccc(C(=O)Oc2ccc(/C=N/O)cc2)c1 9.02%
CCOC(=O)c1[nH]c2ccc(OC)cc2c1NC(=S)N1CCN(c2ccccc2OC)CC1 -12.3%
Cc1ccccc1N(C(=O)CNC(=O)c1ccco1)C(C(=O)NC1CCCC1)c1ccncc1 (configuration not stated) -10.4%
CC(NC(=O)Cc1cccs1)C(c1cccs1)N1CCN(c2ccccc2)CC1 (configuration not stated) 12.7%
CCN(CC)S(=O)(=O)c1ccc2c(c1)C(=NO)c1cc(S(=O)(=O)N(CC)CC)ccc1-2 -17%
Cc1ccc(C2(CCN)CCOC(C(C)C)C2)cc1 (configuration not stated) 1.09%
COc1ccccc1CNC(=O)C1CC2Cn3c(nc4cc(Cl)c(Cl)cc43)C2N1C (configuration not stated) -9.09%
O=C(/C=C\c1ccc(O)c(O)c1)O[C@@H](Cc1ccc(O)c(O)c1)C(=O)O 7.38%
CCN1CCN(CC(=O)Nc2cc(F)ccc2C)CC1 -8.15%
CCOc1ccc(C2=Nn3c(nnc3-c3ccco3)SC2)cc1 -9.3%
COc1ccc(C(=O)NC(=S)Nc2ccc(S(=O)(=O)Nc3cc(OC)nc(OC)n3)cc2)cc1 15.3%
O=C(/C=C/c1cccc(Oc2ccccc2)c1)N1CCOCC1 8.92%
CCOc1cccc(N)c1 -23.5%

Potency, active:
CSc1nc(C)cc(SC(C(C)=O)C(=O)Nc2ccccc2)n1 (configuration not stated) 79.4 µM
CC1=C[C@@H](O)CC(C)(C)[C@@H]1/C=C/C(C)=C/C=C/C(C)=C/C=C/C=C(C)/C=C/C=C(C)/C=C/C1=C(C)C[C@H](O)CC1(C)C 28.2 µM
Cc1cc(Cl)n2c(nc3cc(F)c(F)cc32)c1C#N 15.8 µM
O=[N+]([O-])c1ccc(S(=O)(=O)N2CCSC2c2ccco2)cc1 (configuration not stated) 79.4 µM
CNc1cc(-c2ccccc2C)ncn1 50.1 µM
CN(C)c1nc(=Nc2cccc(Cl)c2)ss1 25.1 µM
c1nc(NC2CCNCC2)c2cc(-c3ccoc3)ccc2n1 20 µM
Cc1ccc2c(c1)c(CC(NC(=O)c1ccccc1Oc1ccccc1)C(=O)O)cn2C(=O)OCc1ccccc1 (configuration not stated) 31.6 µM

Potency, inconclusive:
[O-]/[N+](=N\Nc1ccc(Cl)cc1)c1ccccc1 70.8 µM [inhibitor, single point]
COc1ccc(-n2c(-c3ccc(Cl)cc3Cl)n[nH]c2=S)c(OC)c1 15.8 µM [inhibitor, partial curve, poor fit]
COc1ccc(C(=O)NCc2ccc3[nH]c(C)cc3c2)cc1OC 100 µM [inhibitor, single point]
COc1ccc(C(=O)/C=C/Nc2c(C)n(C)n(-c3ccccc3)c2=O)cc1OC 100 µM [inhibitor, partial curve, poor fit]
Cc1ccc(NC(=O)c2nc(S(=O)(=O)Cc3ccccc3C)ncc2Cl)cc1C 15.8 µM [inhibitor, full curve, poor fit]
COc1ccc(Nc2nc3ccccc3c(=O)[nH]2)cc1 25.1 µM [inhibitor, partial curve, poor fit]
O=c1c(-c2ccc(F)cc2)nc2cnc(N3CCNCC3)nc2n1Cc1cccs1 89.1 µM [inhibitor, single point]
C=CCOc1c(OC)cc(/C=N/Nc2cccc(C(=O)O)c2)c(Br)c1Br 89.1 µM [inhibitor, single point]
Cc1nc2c(-c3ccc(F)cc3)c(C)nn2c(C)c1CCC(=O)NCc1ccco1 89.1 µM [inhibitor, single point]
CC(OCCN1CCCC1)(c1ccc(F)cc1)c1ccc(F)cc1 70.8 µM [inhibitor, partial curve]
Cc1onc(-c2c(Cl)cccc2Cl)c1C(=O)NCc1ccco1 8.91 µM [inhibitor, partial curve, poor fit]
CCOC(=O)/C(=C\C=C1/Sc2cc(OCC)c(OCC)cc2N1CC)C(C)=O 79.4 µM [inhibitor, single point]
CC(=O)Nc1nnc(-c2ccccn2)o1 1.41 µM [inhibitor, full curve, poor fit]
Cc1nn(-c2ccccc2)c2sc(-c3n[nH]c(=S)o3)cc12 89.1 µM [inhibitor, partial curve, poor fit]
O=C(/C=C/c1ccccc1Br)c1ccc2c(c1)OCO2 56.2 µM [inhibitor, partial curve, poor fit]
CO[C@]12C[C@@H](COC(=O)c3cncc(Br)c3)CN(C)[C@@H]1Cc1cn(C)c3cccc2c13 28.2 µM [inhibitor, partial curve, poor fit]
N#CCCn1c(=O)c(-c2cc(F)cc(F)c2)nc2cnc(Oc3cccc(Cl)c3)nc21 70.8 µM [inhibitor, partial curve, poor fit]
COc1ccc(Cl)cc1-n1c(=S)sc2c(=O)n(-c3ccc(F)cc3)c(SCC(=O)O)nc21 50.1 µM [inhibitor, partial curve, poor fit]
CSc1ncc(CN2CCCC(C(=O)Nc3ccc(-c4ccco4)cc3)C2)cn1 (configuration not stated) 100 µM [inhibitor, single point]
O=C1Nc2ccccc2C1=Nc1ccccc1-c1ccccc1 70.8 µM [inhibitor, partial curve, poor fit]
COc1cccc(-c2nnc(SCC(=O)NC3CCCCC3)o2)c1 100 µM [inhibitor, single point]
CSc1nc(N)c(C(=O)Nc2ccc([N+](=O)[O-])cc2)s1 100 µM [inhibitor, partial curve, poor fit]
O=C(Nc1ccccc1)c1ccc(-c2ccc([N+](=O)[O-])cc2)o1 39.8 µM [inhibitor, partial curve, poor fit]
O=C(O)COc1cccc(-c2ocnc2-c2nc(-c3ccccc3)c(-c3ccccc3)o2)c1 35.5 µM [inhibitor, partial curve, poor fit]
COc1ccc(-c2cc(C(=O)Oc3ccc([N+](=O)[O-])cc3)c3ccccc3n2)cc1 89.1 µM [inhibitor, partial curve, poor fit]
COc1ccc(CNC(=O)C2CCN(C(=O)[C@@H]3Cc4ccccc4CN3)CC2)cc1 39.8 µM [inhibitor, single point]
COc1ccc(C2CC(c3ccc(OC)c(OC)c3)=NN2S(C)(=O)=O)cc1 (configuration not stated) 39.8 µM [inhibitor, partial curve, poor fit]
CC(C)(C)c1ccc(CNc2cc(N3CCOCC3)ccc2[N+](=O)[O-])cc1 39.8 µM [inhibitor, partial curve, poor fit]
O=C(CSc1ncn[nH]1)c1cccc([N+](=O)[O-])c1 79.4 µM [inhibitor, single point]
CCOC(=O)c1c(C)nc(C)c(C(=O)OCC)c1-c1ccc(O)c(OC)c1 89.1 µM [inhibitor, single point]
CC(C)[C@H](NC(=O)NCc1ccco1)C(=O)O 89.1 µM [inhibitor, single point]
Cc1ccc(SCC(=O)Nc2cc([N+](=O)[O-])ccc2O)cc1 17.8 µM [inhibitor, single point]
O=C(O)c1ccc2c(=O)n3c(nc2c1)/C(=C/c1ccc(OC(F)F)cc1OC(F)F)CC3 20 µM [inhibitor, partial curve, poor fit]
N#CC(C#N)=c1ccc2c(c1)N1C(c3ccccc3)=CC(c3ccccc3)C3CCCCC31N=2 (configuration not stated) 56.2 µM [inhibitor, partial curve, poor fit]
COc1ccc(CCNC(=O)c2cc(S(=O)(=O)N(C)c3ccccc3)ccc2Cl)cc1 79.4 µM [inhibitor, partial curve]
CCCSc1nnc(Sc2nnnn2-c2ccccc2)s1 56.2 µM [inhibitor, partial curve, poor fit]
C/C(=N\N1C(=O)CSC1=S)c1ccc(Br)cc1 79.4 µM [inhibitor, single point]
CCCC(=O)c1cc(F)c(N2CCN(CCC#N)CC2)cc1C 11.2 µM [inhibitor, partial curve, poor fit]
O=C(NCCCNC(=O)c1ccccn1)c1ccc(F)cc1 79.4 µM [inhibitor, partial curve, poor fit]

Arranged by SMILES length (descending): part of the list above.
Potency, inconclusive:
COc1ccc(Cl)cc1-n1c(=S)sc2c(=O)n(-c3ccc(F)cc3)c(SCC(=O)O)nc21 50.1 µM [inhibitor, partial curve, poor fit]
O=C(O)COc1cccc(-c2ocnc2-c2nc(-c3ccccc3)c(-c3ccccc3)o2)c1 35.5 µM [inhibitor, partial curve, poor fit]
COc1ccc(C(=O)/C=C/Nc2c(C)n(C)n(-c3ccccc3)c2=O)cc1OC 100 µM [inhibitor, partial curve, poor fit]
CC(C)[C@H](NC(=O)NCc1ccco1)C(=O)O 89.1 µM [inhibitor, single point]
